Experiment [1] deals with TC45 wild type fused at both termini to CFP (CFP-TC45-CFP) or to YFP (YFP-TC45-YFP), expressed in NCI-H358 cells (UniProt P17706). Description: FRET or BRET; FRET-based flow cytometry of NCI-H358 cells cotransfected with the CFP-X-CFP and YFP-X-YFP constructs, 24 h; cells cotransfected with NLS-CFP and NLS-YFP as the basis for the intermolecular FRET signal. In general terms: Bioluminescence resonance energy transfer reports proximity on the nanometre scale.

The target of experiment [2] is TC45^E/A fused at both termini to CFP (CFP-TC45^E/A-CFP) or to YFP (YFP-TC45^E/A-YFP), expressed in NCI-H358 cells (UniProt P17706). Described as above.

Changes are numbered by the printed parent chain. Results are given in words; binding and its absence hold for the method and conditions named. Binding seen in cells or lysates may run through a third protein. Some binding calls cover weakened binding; strength is not graded here. Where a sequence is shown, tags or fusion partners need not be part of it.

B1: T-cell protein tyrosine phosphatase, 45 kDa form (TC45), wild type, fused at both termini to CFP (CFP-TC45-CFP) or to YFP (YFP-TC45-YFP), bacterially expressed (enzyme, UniProt P17706-2 1-387, looked up)
chain: MPTTIEREFEELDTQRRWQPLYLEIRNESHDYPHRVAKFPENRNRNRYRDVSPYDHSRVKLQNAENDYINASLVDIEEAQRSYILTQGPLPNTCCHFWLMVWQQKTKAVVMLNRIVEKESVKCAQYWPTDDQEMLFKETGFSVKLLSEDVKSYYTVHLLQLENINSGETRTISHFHYTTWPDFGVPESPASFLNFLFKVRESGSLNPDHGPAVIHCSAGIGRSGTFSLVDTCLVLMEKGDDINIKQVLLNMRKYRMGLIQTPDQLRFSYMAIIEGAKCIKGDSSIQKRWKELSKEDLSPAFDHSPNKIMTEKYNGNRIGLEEEKLTGDRCTGLSSKMQDTMEENSESALRKRIREDRKATTAQKVQQMKQRLNENERKRKRPRLTDT
notes: T-cell protein tyrosine phosphatase (TC-PTP, encoded by PTPN2), 45 kDa form TC45, full-length ORF; the printed residues 377RKRKRPR383 near the C terminus fit the 387-residue TC45 isoform; Self-association was tested with an equimolar mixture of two differently labelled copies: CFP-TC45-CFP and YFP-TC45-YFP; The His6 tag and its thrombin cleavage are described in general for the pET28 constructs …
For B1, the binding entry in experiment [1] is “binds”.

B2: TC45^E/A (TC45 with 378KRKRPR383 mutated into 378EAAAPE383), fused at both termini to CFP (CFP-TC45^E/A-CFP) or to YFP (YFP-TC45^E/A-YFP), bacterially expressed (enzyme, UniProt P17706-2 1-387, looked up)
chain: B1 chain with K378E, R379A, K380A, R381A, R383E
notes: The His6 tag and its thrombin cleavage are described in general for the pET28 constructs and the purification; also called C-EA-C; Y-EA-Y; not shown: His6, N-terminal, cleaved; CFP (one copy) or YFP (the other copy), N-terminal, kept; CFP (one copy) or YFP (the other copy), C-terminal, kept
B2: the binding result in experiment [2] was “binds”.
